Biological target: rat brain benzodiazepine receptors (3H-diazepam receptor)
Test: benzodiazepine receptor binding test in vitro (inhibition of specific 3H-diazepam binding to rat brain membranes)
Source text: The pharmacological properties of the compounds of the present invention were first investigated by submitting them to the benzodiazepine receptor binding test in vitro.

SMILES | Ki (rat brain membranes, Ki = IC50/(1+C/KD), read-out: Ki (inhibitor constant, 3H-diazepam binding)) | Kd (3H-diazepam, used in the calculation of Ki, read-out: KD (affinity constant of 3H-diazepam for its receptor))
CN1C(=O)CN=C(c2ccccc2)c2cc(Cl)ccc21 [Diazepam, reference compound] | 1.89 nM | –
CN1C(=O)CN=C(c2ccccc2)c2cc(Cl)ccc21 [^3 H-diazepam, reference compound] | – | 3.4 nM
